According to the supplement of paper PMC12595434, “Development of retinoid nuclear receptor pathway antagonists through targeting aldehyde dehydrogenase 1A3” (iScience, 2025):
The other results are listed elsewhere or left out. This is a noisy data set.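 Tm was set to 64 °C where no melting was found, and many curves are irregular.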

Amino acid sequences for entries named in this document (tags omitted). A change or cut given only in a name is not applied to a line headed by its entry.
UniProt Q96AC1: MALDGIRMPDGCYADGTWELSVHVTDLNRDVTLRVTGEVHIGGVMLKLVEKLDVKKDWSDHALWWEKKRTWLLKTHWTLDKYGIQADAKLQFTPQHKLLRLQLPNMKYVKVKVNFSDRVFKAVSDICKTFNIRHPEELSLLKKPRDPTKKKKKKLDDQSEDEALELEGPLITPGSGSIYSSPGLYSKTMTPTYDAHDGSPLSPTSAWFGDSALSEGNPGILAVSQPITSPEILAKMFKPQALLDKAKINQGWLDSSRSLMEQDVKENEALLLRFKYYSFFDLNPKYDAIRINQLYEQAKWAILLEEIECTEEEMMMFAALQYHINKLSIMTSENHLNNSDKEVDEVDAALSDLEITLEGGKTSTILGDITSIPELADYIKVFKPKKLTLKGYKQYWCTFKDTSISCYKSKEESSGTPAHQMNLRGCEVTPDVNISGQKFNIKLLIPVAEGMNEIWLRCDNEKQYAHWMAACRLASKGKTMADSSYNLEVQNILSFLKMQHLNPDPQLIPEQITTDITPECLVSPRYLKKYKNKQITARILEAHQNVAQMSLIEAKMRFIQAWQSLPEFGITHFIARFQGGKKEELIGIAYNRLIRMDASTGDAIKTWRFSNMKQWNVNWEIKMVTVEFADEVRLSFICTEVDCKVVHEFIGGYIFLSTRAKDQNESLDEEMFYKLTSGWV
UniProt Q8WYQ5: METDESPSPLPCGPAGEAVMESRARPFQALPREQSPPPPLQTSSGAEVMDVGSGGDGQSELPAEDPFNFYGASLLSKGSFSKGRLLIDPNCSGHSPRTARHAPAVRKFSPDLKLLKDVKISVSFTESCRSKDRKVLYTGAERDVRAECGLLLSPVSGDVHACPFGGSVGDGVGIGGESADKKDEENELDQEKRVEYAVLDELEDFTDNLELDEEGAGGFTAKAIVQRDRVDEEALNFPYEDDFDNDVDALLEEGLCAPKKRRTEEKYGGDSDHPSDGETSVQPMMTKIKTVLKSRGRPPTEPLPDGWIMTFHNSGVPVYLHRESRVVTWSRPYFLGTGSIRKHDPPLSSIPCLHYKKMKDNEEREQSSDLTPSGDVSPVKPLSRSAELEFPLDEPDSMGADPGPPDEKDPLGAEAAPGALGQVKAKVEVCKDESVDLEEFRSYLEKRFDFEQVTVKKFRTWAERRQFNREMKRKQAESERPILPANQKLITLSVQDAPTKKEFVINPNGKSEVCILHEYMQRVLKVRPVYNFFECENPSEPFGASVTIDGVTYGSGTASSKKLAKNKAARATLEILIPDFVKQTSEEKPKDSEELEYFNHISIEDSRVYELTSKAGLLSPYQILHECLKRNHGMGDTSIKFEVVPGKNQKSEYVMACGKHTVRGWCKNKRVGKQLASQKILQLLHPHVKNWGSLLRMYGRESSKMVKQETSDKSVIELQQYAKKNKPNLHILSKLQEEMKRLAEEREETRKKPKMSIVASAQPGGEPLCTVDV
UniProt Q96DI7: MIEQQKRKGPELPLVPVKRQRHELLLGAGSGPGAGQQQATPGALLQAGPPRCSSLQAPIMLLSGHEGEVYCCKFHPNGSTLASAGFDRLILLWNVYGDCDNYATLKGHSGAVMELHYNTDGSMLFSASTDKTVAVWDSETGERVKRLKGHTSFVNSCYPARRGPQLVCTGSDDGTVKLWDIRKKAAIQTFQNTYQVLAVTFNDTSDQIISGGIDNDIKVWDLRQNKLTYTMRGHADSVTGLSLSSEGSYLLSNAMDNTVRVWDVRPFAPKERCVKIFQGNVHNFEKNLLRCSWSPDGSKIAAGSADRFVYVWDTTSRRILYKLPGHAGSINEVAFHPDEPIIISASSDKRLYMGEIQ
UniProt Q96DA2: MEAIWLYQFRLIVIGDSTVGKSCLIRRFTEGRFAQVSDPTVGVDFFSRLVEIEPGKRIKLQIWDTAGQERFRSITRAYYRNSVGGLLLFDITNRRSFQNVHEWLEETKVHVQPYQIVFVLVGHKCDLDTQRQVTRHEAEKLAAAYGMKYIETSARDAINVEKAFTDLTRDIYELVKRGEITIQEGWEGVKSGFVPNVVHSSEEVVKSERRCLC
UniProt Q92759: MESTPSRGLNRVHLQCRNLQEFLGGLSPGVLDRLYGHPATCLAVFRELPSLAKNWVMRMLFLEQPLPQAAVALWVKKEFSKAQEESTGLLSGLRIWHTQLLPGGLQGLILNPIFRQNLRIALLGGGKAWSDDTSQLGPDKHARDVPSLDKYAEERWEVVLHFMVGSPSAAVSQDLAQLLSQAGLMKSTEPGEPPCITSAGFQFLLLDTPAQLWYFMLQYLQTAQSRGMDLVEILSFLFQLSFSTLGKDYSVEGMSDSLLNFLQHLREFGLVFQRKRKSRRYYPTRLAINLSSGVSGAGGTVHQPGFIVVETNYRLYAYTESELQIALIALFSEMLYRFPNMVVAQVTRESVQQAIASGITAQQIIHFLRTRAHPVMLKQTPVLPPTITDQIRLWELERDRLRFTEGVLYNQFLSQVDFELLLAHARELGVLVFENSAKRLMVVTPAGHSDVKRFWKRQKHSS
UniProt Q96AX1: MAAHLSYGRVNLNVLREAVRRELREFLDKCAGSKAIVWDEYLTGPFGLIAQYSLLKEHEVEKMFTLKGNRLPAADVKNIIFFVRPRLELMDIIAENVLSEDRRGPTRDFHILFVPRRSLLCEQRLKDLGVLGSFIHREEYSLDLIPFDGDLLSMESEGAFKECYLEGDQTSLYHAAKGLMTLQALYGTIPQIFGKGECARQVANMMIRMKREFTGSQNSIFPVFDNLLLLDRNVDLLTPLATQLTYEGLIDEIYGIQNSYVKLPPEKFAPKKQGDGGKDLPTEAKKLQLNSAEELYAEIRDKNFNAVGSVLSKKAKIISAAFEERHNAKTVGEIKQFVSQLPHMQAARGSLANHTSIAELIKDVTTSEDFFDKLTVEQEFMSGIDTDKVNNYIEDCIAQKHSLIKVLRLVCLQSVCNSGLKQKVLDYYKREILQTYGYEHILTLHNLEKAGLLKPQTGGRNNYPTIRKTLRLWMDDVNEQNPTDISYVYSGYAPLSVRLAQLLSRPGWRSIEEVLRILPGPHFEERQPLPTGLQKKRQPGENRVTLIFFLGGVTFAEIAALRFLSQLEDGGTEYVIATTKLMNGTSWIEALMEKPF
UniProt Q92560: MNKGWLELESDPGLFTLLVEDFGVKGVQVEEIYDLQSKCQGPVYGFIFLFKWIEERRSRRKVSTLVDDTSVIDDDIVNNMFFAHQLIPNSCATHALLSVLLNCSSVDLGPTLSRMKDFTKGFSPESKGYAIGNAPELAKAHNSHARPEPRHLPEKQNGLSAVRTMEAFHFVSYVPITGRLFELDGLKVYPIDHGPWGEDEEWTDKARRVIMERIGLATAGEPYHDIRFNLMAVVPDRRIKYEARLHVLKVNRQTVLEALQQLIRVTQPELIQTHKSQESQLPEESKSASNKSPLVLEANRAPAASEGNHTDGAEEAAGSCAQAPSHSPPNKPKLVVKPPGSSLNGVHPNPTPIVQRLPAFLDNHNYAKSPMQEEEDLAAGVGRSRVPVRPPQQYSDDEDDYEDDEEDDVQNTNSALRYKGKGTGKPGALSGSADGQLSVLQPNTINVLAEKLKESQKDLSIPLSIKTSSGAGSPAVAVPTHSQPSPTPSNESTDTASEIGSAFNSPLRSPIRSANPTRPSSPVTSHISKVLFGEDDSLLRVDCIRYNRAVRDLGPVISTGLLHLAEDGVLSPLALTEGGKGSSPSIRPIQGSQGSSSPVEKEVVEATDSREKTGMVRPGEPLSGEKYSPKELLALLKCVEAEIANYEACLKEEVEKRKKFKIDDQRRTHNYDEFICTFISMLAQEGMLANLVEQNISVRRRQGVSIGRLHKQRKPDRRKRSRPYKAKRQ
UniProt Q969G3, whole entry: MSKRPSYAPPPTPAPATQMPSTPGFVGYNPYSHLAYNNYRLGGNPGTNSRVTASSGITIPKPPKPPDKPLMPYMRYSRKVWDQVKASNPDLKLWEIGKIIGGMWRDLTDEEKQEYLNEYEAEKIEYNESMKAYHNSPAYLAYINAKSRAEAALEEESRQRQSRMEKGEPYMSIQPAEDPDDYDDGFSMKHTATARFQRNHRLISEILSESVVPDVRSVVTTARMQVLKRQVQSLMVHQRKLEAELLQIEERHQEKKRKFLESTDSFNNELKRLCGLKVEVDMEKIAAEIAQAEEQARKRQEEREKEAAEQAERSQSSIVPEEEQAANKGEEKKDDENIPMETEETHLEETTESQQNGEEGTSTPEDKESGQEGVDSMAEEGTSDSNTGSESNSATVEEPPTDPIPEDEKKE
UniProt Q96AQ6: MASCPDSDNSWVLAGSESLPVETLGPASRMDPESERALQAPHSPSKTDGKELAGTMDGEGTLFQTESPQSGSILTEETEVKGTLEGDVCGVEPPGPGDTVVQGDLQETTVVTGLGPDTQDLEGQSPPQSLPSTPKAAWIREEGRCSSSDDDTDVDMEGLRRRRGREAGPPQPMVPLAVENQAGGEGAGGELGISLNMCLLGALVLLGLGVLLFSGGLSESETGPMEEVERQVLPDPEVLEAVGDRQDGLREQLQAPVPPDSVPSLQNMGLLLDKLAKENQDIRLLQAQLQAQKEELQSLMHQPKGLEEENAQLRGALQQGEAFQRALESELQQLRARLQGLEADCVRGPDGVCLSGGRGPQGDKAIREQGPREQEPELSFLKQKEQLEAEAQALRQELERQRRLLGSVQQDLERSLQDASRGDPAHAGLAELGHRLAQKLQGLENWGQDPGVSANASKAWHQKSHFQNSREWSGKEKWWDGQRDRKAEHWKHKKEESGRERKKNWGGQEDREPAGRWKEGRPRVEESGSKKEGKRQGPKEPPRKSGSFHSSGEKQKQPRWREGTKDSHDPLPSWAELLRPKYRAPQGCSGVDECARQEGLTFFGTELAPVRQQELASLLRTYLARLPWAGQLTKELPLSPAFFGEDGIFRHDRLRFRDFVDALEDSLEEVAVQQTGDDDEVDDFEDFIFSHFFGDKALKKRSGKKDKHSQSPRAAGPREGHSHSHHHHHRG
UniProt Q969H8: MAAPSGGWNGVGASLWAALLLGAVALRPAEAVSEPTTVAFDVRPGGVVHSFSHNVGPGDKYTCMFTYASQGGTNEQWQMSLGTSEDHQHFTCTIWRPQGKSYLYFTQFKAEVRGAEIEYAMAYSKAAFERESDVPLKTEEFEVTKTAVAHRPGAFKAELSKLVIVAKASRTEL
UniProt Q96C86: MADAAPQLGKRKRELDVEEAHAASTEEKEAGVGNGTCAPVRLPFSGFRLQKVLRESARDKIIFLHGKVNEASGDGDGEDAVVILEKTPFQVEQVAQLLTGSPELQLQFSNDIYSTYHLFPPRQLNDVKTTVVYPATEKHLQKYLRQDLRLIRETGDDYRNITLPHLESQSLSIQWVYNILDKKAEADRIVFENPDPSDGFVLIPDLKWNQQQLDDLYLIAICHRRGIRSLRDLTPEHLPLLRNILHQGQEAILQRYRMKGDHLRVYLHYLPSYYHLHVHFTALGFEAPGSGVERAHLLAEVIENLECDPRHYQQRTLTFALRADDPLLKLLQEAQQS
UniProt Q96D71: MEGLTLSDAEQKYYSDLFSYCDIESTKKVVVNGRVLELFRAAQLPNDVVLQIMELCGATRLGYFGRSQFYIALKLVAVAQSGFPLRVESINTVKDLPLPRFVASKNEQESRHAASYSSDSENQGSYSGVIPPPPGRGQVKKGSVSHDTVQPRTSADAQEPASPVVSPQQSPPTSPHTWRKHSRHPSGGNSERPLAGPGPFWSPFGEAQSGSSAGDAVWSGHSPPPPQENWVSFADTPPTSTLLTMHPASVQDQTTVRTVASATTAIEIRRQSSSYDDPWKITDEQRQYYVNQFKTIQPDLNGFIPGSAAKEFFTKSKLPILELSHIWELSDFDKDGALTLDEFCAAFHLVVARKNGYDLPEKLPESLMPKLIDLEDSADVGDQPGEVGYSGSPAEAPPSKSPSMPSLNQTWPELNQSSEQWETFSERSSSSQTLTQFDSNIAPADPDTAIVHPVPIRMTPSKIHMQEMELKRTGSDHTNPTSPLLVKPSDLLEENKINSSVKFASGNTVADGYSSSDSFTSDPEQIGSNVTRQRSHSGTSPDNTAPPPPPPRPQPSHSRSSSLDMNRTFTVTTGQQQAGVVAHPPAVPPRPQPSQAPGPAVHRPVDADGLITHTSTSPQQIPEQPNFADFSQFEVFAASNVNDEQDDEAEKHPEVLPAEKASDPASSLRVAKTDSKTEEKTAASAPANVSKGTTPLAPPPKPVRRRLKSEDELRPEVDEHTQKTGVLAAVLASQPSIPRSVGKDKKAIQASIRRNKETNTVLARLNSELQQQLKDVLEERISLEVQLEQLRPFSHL
UniProt Q96CT7: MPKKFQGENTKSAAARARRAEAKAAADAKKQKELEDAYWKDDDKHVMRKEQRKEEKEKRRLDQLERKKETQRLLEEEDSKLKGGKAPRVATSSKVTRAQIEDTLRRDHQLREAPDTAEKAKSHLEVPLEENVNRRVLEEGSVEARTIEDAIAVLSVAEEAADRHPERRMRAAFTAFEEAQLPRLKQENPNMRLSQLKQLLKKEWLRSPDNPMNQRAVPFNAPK

Compound: CCc1cnccc1C(=O)Nc1cc2c(cc1F)NC(=O)CC2
Test: melting temperature shift (DMSO Tm minus MBE1-treated Tm) in cellular thermal proteome profiling; higher = less thermal stabilization by MBE1 (negative = stabilized by MBE1)
Settings: A375

| Target | melting temperature shift (MBE1 concentration: 100 nM) [°C] | melting temperature shift (MBE1 concentration: 1 uM) [°C] |
| --- | --- | --- |
| FERMT2 (UniProt Q96AC1) | -0.215 | 0.657 |
| RABGGTA (UniProt Q92696) | -0.101 | 0.282 |
| UniProt Q8WYQ5 | -0.0305 | -1.09 |
| UniProt Q93075 | -3.84 | -2.53 |
| SYMPK (UniProt Q92797) | -0.816 | 0.0448 |
| KIF1BP (UniProt Q96EK5) | -0.875 | -0.538 |
| UniProt Q92834 | -0.718 | 0.201 |
| SNRNP40 (UniProt Q96DI7) | -0.335 | 0.248 |
| UniProt Q96DA2 | 1.25 | 1.87 |
| ABCC2 (UniProt Q92887) | -0.57 | -0.287 |
| GTF2H4 (UniProt Q92759) | -0.205 | -0.307 |
| UniProt Q93084 | -0.758 | 0.302 |
| VPS33A (UniProt Q96AX1) | -0.0141 | -0.299 |
| TTC17 (UniProt Q96AE7) | -1.19 | 0.611 |
| TAF15 (UniProt Q92804) | -2.85 | 1.59 |
| PSMF1 (UniProt Q92530) | -0.711 | 0.241 |
| UniProt Q92845 | -0.0753 | 0.0047 |
| UniProt Q92560 | 2.9 | 1.73 |
| AP2M1 (UniProt Q96CW1) | -0.594 | 0.148 |

| Target | melting temperature shift (MBE1 concentration: 100 nM) [°C] | melting temperature shift (MBE1 concentration: 1 uM) [°C] |
| --- | --- | --- |
| SMARCE1 (UniProt Q969G3) | -0.48 | -0.404 |
| TM9SF4 (UniProt Q92544) | 0.409 | 0.14 |
| PIEZO1 (UniProt Q92508) | -0.179 | 1.92 |
| GLG1 (UniProt Q92896) | -2.55 | -2.8 |
| PBXIP1 (UniProt Q96AQ6) | -7.29 | -6.34 |
| FOXRED1 (UniProt Q96CU9) | -0.516 | 0.14 |
| MCUR1 (UniProt Q96AQ8) | -1.5 | 0.127 |
| MYDGF (UniProt Q969H8) | -2.1 | -1.07 |
| DHX38 (UniProt Q92620) | 0.055 | 0.818 |
| DCPS (UniProt Q96C86) | -0.988 | -1.79 |
| REPS1 (UniProt Q96D71) | 0.0518 | -0.801 |
| CCDC124 (UniProt Q96CT7) | -1.26 | -2.95 |
| UniProt Q92614 | 0.366 | -0.122 |
| UniProt Q96BU1 | -5.61 | -7.66 |
| GBF1 (UniProt Q92538) | 0.586 | 0.00611 |
| UniProt Q969V6 | -0.973 | 0.81 |
| GATAD2B (UniProt Q8WXI9) | -0.41 | -0.448 |
| TBC1D5 (UniProt Q92609) | 0.409 | -0.318 |

Rewritten as tab-separated lines: part of the list above
Target	melting temperature shift (MBE1 concentration: 100 nM) [°C]	melting temperature shift (MBE1 concentration: 1 uM) [°C]
PIEZO1 (UniProt Q92508)	-0.179	1.92
GLG1 (UniProt Q92896)	-2.55	-2.8
PBXIP1 (UniProt Q96AQ6)	-7.29	-6.34
FOXRED1 (UniProt Q96CU9)	-0.516	0.14
MCUR1 (UniProt Q96AQ8)	-1.5	0.127
MYDGF (UniProt Q969H8)	-2.1	-1.07
DHX38 (UniProt Q92620)	0.055	0.818
DCPS (UniProt Q96C86)	-0.988	-1.79
REPS1 (UniProt Q96D71)	0.0518	-0.801
